Experimental data taken from the supplement of paper PMC10689618.
Where a name gives a salt, the structure may show the parent alone. The list shows a part of the results. Repeats are few or missing, and single values can be far off.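 Labelled rat cortical synaptosomes were engulfed by primary human fetal astrocytes. Engulfment equaled a red/green ratio, corrected for calcein live-cell signal and normalized to the plate median. Compounds were toxic when calcein dropped over 30%, and reduced phagocytosis when below 70% of the median above 5 µM.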

What was measured:
[1] = tested on: Human fetal astrocytes; experiment: loss of total cells relative to no-compound high-control median (toxicity); higher = more toxic (fewer cells); conditions: 24 h
[2] = tested on: Human fetal astrocytes; experiment: synaptosome phagocytosis (pHrodo/calcein intensity ratio) relative to plate median of data wells; higher = more phagocytosis; conditions: 24 h

| Compound | loss of total cells ([1]; 1.39 µM) [%] | loss of total cells ([1]; 2.78 µM) [%] | loss of total cells ([1]; 5.56 µM) [%] | loss of total cells ([1]; 11.11 µM) [%] | loss of total cells ([1]; 22.22 µM) [%] | synaptosome phagocytosis ([2]; 1.39 µM) [%] | synaptosome phagocytosis ([2]; 2.78 µM) [%] | synaptosome phagocytosis ([2]; 5.56 µM) [%] | synaptosome phagocytosis ([2]; 11.11 µM) [%] | synaptosome phagocytosis ([2]; 22.22 µM) [%] |
| --- | --- | --- | --- | --- | --- | --- | --- | --- | --- | --- |
| C[C@@H]1O[C@@H](Oc2c(-c3ccc(O)c(O)c3)oc3cc(O)cc(O)c3c2=O)[C@H](O)[C@H](O)[C@H]1O | -0.4 | 24.9 | 21 | 13.8 | 6.8 | 131 | 120 | 173 | 79.4 | 98.9 |
| C[N+]1(C)CCC(OC(=O)C(O)(c2ccccc2)C2CCCC2)C1 (stereo not given) | 6.2 | 12 | 31.3 | -0.6 | 38.1 | 123 | 105 | 152 | 101 | 159 |
| CC(C)=CCC/C(C)=C/CC/C(C)=C/CC/C(C)=C/CC/C(C)=C/CC/C(C)=C/CC/C(C)=C/CC/C(C)=C/CC/C(C)=C/CO | -4.1 | 2.5 | -7.3 | 28.4 | 18.5 | 146 | 127 | 147 | 118 | 156 |
| O=C1O[C@H](CO)[C@@H](O)[C@H](O)[C@H]1O | 10.8 | -9.5 | -0.3 | 16.4 | -12.5 | 80.9 | 110 | 97.3 | 94.1 | 87.8 |
| COc1ccc(-c2coc3cc(OC)ccc3c2=O)cc1 | 22.7 | 10.5 | -2.9 | 13.8 | 2.3 | 91.3 | 99.9 | 101 | 66.5 | 93.5 |
| C[C@]12C=CC(=O)C=C1CC[C@@H]1[C@@H]2C(=O)C[C@@]2(C)[C@H]1CC[C@]2(O)C(=O)CO | -0.3 | -9.2 | 7 | -5.5 | 43.5 | 102 | 130 | 93 | 104 | 146 |
| CC(=O)O[C@@H]1CC2C(C)(CC[C@H](O)C2(C)C)C2CC[C@]3(C)C(=CC(=O)O[C@H]3c3ccoc3)C21C (stereo partly drawn) [3beta-HYDROXYDEOXODIHYDRODEOXYGEDUNIN] | 27.2 | 3.3 | 6.1 | 26.5 | 0.4 | 40.1 | 45.9 | 17.8 | 10.6 | 39.7 |
| COc1c2ccoc2cc2oc(C)cc(=O)c12 | 15.6 | 8.3 | 7.3 | 8.1 | 12.6 | 131 | 133 | 127 | 134 | 67.1 |
| CC(COc1ccccc1)NC(C)C(O)c1ccc(O)cc1 (stereo not given) | -6.8 | -9.2 | -12.5 | 2.6 | -14.3 | 99.5 | 99.8 | 111 | 72.4 | 73.7 |
| Cc1ncc([N+](=O)[O-])n1CC(O)CCl (stereo not given) | -11.2 | 8.6 | 6.9 | -9 | -5.6 | 98.8 | 90.5 | 95.5 | 75.3 | 118 |
| C/C(=C\C(=O)OCCCCCCCCC(=O)O)C[C@@H]1OC[C@H](C[C@@H]2O[C@H]2[C@@H](C)[C@H](C)O)[C@@H](O)[C@H]1O | -43.5 | 14.3 | 1.2 | 37 | 4.7 | 92.1 | 98.2 | 68.8 | 144 | 104 |
| Cc1c(C)c2c(c(C)c1O)CCC(C)(C(=O)O)O2 (stereo not given) | 17.7 | 25.6 | 16.7 | 10.5 | 16.7 | 144 | 130 | 91.2 | 97 | 134 |
| COc1cc(OC)c2c(=O)c(-c3ccc4c(c3)OCO4)coc2c1 | -6.6 | -12.6 | -1.5 | -6.1 | 9.6 | 116 | 78.7 | 95.1 | 110 | 79.9 |
| O=C(O)c1cc(/N=N/c2ccc(S(=O)(=O)Nc3ccccn3)cc2)ccc1O | 2.7 | 8.5 | -7.7 | -1.4 | -10.6 | 103 | 97.1 | 113 | 103 | 96.7 |
| Nc1nc(=S)c2ncn([C@@H]3O[C@H](CO)[C@@H](O)[C@H]3O)c2[nH]1 | -21.3 | -8.3 | -8 | 11.3 | -5.3 | 51.9 | 22.9 | 37.5 | 22.8 | 25.1 |
| Nc1nc(=O)c2[nH]c(=O)cnc2[nH]1 | -8.2 | 4 | -23.4 | 14.9 | 4.4 | 131 | 116 | 89.4 | 101 | 97.3 |
| CN1Cc2c(N)cccc2C(c2ccccc2)C1 (stereo not given) [Nomifensine maleate] | 24.2 | -38.1 | 14.3 | -1 | 4.7 | 123 | 96.9 | 115 | 57.1 | 101 |
| CC(C)CC(NC(=O)[C@H](C)N)C(=O)O (mixture of isomers) | -30.3 | -2.5 | 6.6 | 3.4 | -6.7 | 71.1 | 117 | 89.3 | 82.3 | 77 |
| Oc1c(I)cc(Cl)c2cccnc12 | 15.8 | -9.5 | 26.7 | 54.7 | 48.7 | 54.6 | 64.1 | 61.8 | 31 | 26.4 |
| C[n+]1cccc(C(=O)[O-])c1 | -9.8 | -1.1 | -5.1 | 0 | 14.8 | 119 | 86.6 | 54.1 | 82.4 | 86.7 |
| CCC(=O)OCC(=O)[C@@]1(OC(=O)CC)[C@H](C)C[C@H]2[C@H]3[C@H]([C@@H](O)C[C@@]21C)[C@@]1(C)C=CC(=O)C=C1C[C@H]3Cl | -32.3 | -32.5 | -7.5 | 18.7 | -11.5 | 122 | 125 | 113 | 111 | 99.4 |
| CC(=O)O[C@@H]1C=C[C@]2(C)C(C[C@@H](OC(C)=O)[C@]3(C)C4=CC(=O)O[C@H](c5ccoc5)[C@@]4(C)CCC23)C1(C)C (stereo not given in full) | -4.7 | 10.5 | 5.8 | -5.4 | 12.1 | 81.8 | 113 | 83.4 | 100 | 60.1 |

| Compound | loss of total cells ([1]; 1.39 µM) [%] | loss of total cells ([1]; 2.78 µM) [%] | loss of total cells ([1]; 5.56 µM) [%] | loss of total cells ([1]; 11.11 µM) [%] | loss of total cells ([1]; 22.22 µM) [%] | synaptosome phagocytosis ([2]; 1.39 µM) [%] | synaptosome phagocytosis ([2]; 2.78 µM) [%] | synaptosome phagocytosis ([2]; 5.56 µM) [%] | synaptosome phagocytosis ([2]; 11.11 µM) [%] | synaptosome phagocytosis ([2]; 22.22 µM) [%] |
| --- | --- | --- | --- | --- | --- | --- | --- | --- | --- | --- |
| COc1cc(O)c2c(=O)cc(-c3ccc(OC)c(-c4c(O)cc(O)c5c(=O)cc(-c6ccc(O)cc6)oc45)c3)oc2c1 [GINKGETIN, K salt] | -6.2 | -8.6 | 30.5 | 45.8 | 3.3 | 114 | 107 | 96.8 | 155 | 127 |
| CC[C@H]1OC(=O)C[C@@H](O)[C@H](C)[C@@H](O[C@@H]2O[C@H](C)[C@@H](O)[C@H](N(C)C)[C@H]2O)[C@@H](CCN2C[C@H](C)C[C@H](C)C2)C[C@@H](C)C(=O)/C=C/C(C)=C/[C@@H]1CO[C@@H]1O[C@H](C)[C@@H](O)[C@@H](OC)[C@H]1OC | -36.3 | -28.6 | -1.9 | -21.3 | 2.2 | 124 | 105 | 75.5 | 72.1 | 118 |
| Nc1nc(=O)c2c([nH]1)NCC(CNc1ccc(C(=O)N[C@@H](CCC(=O)O)C(=O)O)cc1)N2C=O (stereo not given in full) | 2.1 | -9.8 | -6.3 | 3.2 | 22.2 | 103 | 119 | 92.4 | 100 | 126 |
| CC(C)=CC1C(CO)C1(C)C (stereo not given) | -8.2 | 6.1 | 1.5 | 14.9 | 20 | 117 | 128 | 134 | 114 | 123 |
| CCCCC(=O)Oc1ccccc1C(=O)O | -14.8 | -5.4 | -8.1 | 9.5 | 13.3 | 109 | 115 | 89.7 | 98.2 | 121 |
| COc1cc(-c2oc3cc(O)ccc3c(=O)c2O)ccc1O | -3.3 | 4 | 10.3 | 2 | 1.5 | 119 | 115 | 87.5 | 105 | 109 |
| CC1(C)S[C@@H]2[C@H](NC(=O)[C@H](N)c3ccccc3)C(=O)N2[C@H]1C(=O)O | 6.6 | -15.5 | 0.9 | -1.6 | 6.2 | 107 | 98.4 | 108 | 90 | 124 |
| COc1ccc(-c2cc(=O)c3c(OC)c(OC)c(OC)c(OC)c3o2)cc1OC [Nobiletin] | -4.9 | 5.4 | 19 | 19.6 | 10.4 | 110 | 107 | 113 | 111 | 61.9 |
| O=C(O)CCCCCCCCCCCC[C@@H]1C=CCC1 | 16.2 | 20.6 | 12.3 | -7.9 | 18.2 | 132 | 135 | 93.8 | 122 | 144 |
| COC(=O)[C@@H]1OC(=O)C2OC23[C@@]1(C)CCC1[C@]2(C)C(C[C@H](O)[C@]13C)C(C)(C)[C@H](OC(C)=O)C[C@@H]2OC(C)=O (stereo partly drawn) [7beta-HYDROXY-7-DESACETOXYKHIVORINIC ACID, METHYL ESTER] | 17 | -0.7 | 43.5 | 0 | 9.3 | 118 | 83.4 | 123 | 97.5 | 123 |
| CN(C)C(=N)NC(=N)N | -4.1 | -8.2 | -21.3 | -13.3 | 11.3 | 120 | 112 | 83.1 | 97.8 | 101 |
| Cc1c[nH]c2ccccc12 | 30.7 | 17 | 12.3 | 7.9 | 16.7 | 116 | 123 | 115 | 88.3 | 104 |
| CN1CCC(=C2c3ccccc3CCc3sccc32)CC1 | -16.1 | -46 | 3.1 | 13.4 | 14.6 | 107 | 101 | 101 | 95.3 | 114 |
| C[C@H]1C[C@@H]2[C@H]([C@@H](O)C[C@@]3(C)[C@H]2CC[C@]3(O)C(=O)CO)[C@@]2(C)C=CC(=O)C=C12 | -14.9 | -10.1 | 10.5 | -19.5 | 11.3 | 57.3 | 92.7 | 107 | 83.4 | 106 |
| CC[C@@]1(O)C(=O)OCc2c1cc1n(c2=O)Cc2cc3cc(O)ccc3nc2-1 | 4.1 | 17 | 18.3 | 16.2 | 11.9 | 118 | 85.4 | 95 | 84.1 | 85.7 |
| C/C=N/N(C)C=O | 7.6 | 13.4 | 21.7 | 12.1 | 15.2 | 97.8 | 119 | 124 | 108 | 110 |
| O=c1ccc2cc(O)c(O)cc2o1 | 4 | 1.1 | 0.7 | 8.8 | 16.7 | 131 | 92.1 | 102 | 123 | 133 |
| COc1cc(C)c2c(c1C=O)Oc1c(c(C)c(O)c3c1C(O)OC3=O)OC2=O (stereo not given) | -10.5 | 7.3 | 27.5 | 29 | -4.8 | 107 | 97.8 | 109 | 114 | 118 |
| Nc1ccc(S(=O)(=O)Nc2ncccn2)cc1 | -2.1 | -28.8 | -12.5 | -10.1 | 21.6 | 94.5 | 130 | 94.4 | 108 | 104 |
| COc1ncnc(NS(=O)(=O)c2ccc(N)cc2)c1OC | 9.1 | 13.1 | -21.3 | -10.2 | -2.3 | 92.8 | 94.2 | 128 | 105 | 127 |
| O=C(OC[C@H]1O[C@@H](OC(=O)c2cc(O)c(O)c(OC(=O)c3cc(O)c(O)c(O)c3)c2)[C@H](OC(=O)c2cc(O)c(O)c(OC(=O)c3cc(O)c(O)c(O)c3)c2)[C@@H](OC(=O)c2cc(O)c(O)c(OC(=O)c3cc(O)c(O)c(O)c3)c2)[C@@H]1OC(=O)c1cc(O)c(O)c(OC(=O)c2cc(O)c(O)c(O)c2)c1)c1cc(O)c(O)c(OC(=O)c2cc(O)c(O)c(O)c2)c1 | -4.1 | 22.3 | 30.9 | 59.4 | 68 | 100 | 146 | 110 | 37.7 | 42.1 |
| Cc1c(C)c2c(c(C)c1O)CCC(C)(CCCC(C)CCCC(C)CCCC(C)C)O2 (stereo not drawn) [alpha-TOCHOPHEROL] | -17.4 | 8.8 | -6.9 | -26.6 | 14.2 | 89.3 | 90.9 | 99.1 | 116 | 133 |

A second format for 3 compounds above:
Compound,loss of total cells ([1]; 1.39 µM) [%],loss of total cells ([1]; 2.78 µM) [%],loss of total cells ([1]; 5.56 µM) [%],loss of total cells ([1]; 11.11 µM) [%],loss of total cells ([1]; 22.22 µM) [%],synaptosome phagocytosis ([2]; 1.39 µM) [%],synaptosome phagocytosis ([2]; 2.78 µM) [%],synaptosome phagocytosis ([2]; 5.56 µM) [%],synaptosome phagocytosis ([2]; 11.11 µM) [%],synaptosome phagocytosis ([2]; 22.22 µM) [%]
CC1(C)S[C@@H]2[C@H](NC(=O)[C@H](N)c3ccccc3)C(=O)N2[C@H]1C(=O)O,6.6,-15.5,0.9,-1.6,6.2,107,98.4,108,90,124
Cc1c[nH]c2ccccc12,30.7,17,12.3,7.9,16.7,116,123,115,88.3,104
C[C@H]1C[C@@H]2[C@H]([C@@H](O)C[C@@]3(C)[C@H]2CC[C@]3(O)C(=O)CO)[C@@]2(C)C=CC(=O)C=C12,-14.9,-10.1,10.5,-19.5,11.3,57.3,92.7,107,83.4,106
